Results are given in words; binding and its absence hold for the method and conditions named. Binding calls can cover weak binding; strength is not graded here.

Drawing on patent US20240254229A1 (Molecular Partners, published 2024), this text covers binding for five molecules.

Assay [1] has as its target biotinylated extracellular domains of cyno CD123 (uniprot ID G8F3K3), Fc format (cyno). The assay can be described thus: ribosome display selection, crude extract HTRF.
For assay [2] the target is unchanged. Put plainly: crude extract HTRF, 6 nM biotinylated CD123. In general terms: Time-resolved FRET reads energy transfer from a long-lived donor to a nearby acceptor.

B1: DARPin® protein #34 (designed binder)
chain: DLGKKLLEAALEGQLDEVRELLKAGADVNAKDQEGYTPLHLAAALGHLEIVEVLLKAGADVNAKDSIGRTPLHLAAYKGHLEIVEVLLKAGADVNAQDLLGETPADLAAEQGHQDIAEVLQKAA
notes: CD123-specific ankyrin repeat domain; not shown: N-terminal His-tag
With B1, the binding entry in assay [1] was “binds”.

B2: DARPin® protein #35 (designed binder)
chain: DLGKKLLEAALEGQDDEVRELLKAGADVNAKDQEGYTPLHLAAALGHLEIVEVLLKAGADVNAKDSIGRTPLHLAAYKGHLEIVEVLLKAGADVNAQDLLGETPADLAAEQGHEDIAEVLQKAA
notes: CD123-specific domain; screened as crude extract
For B2, the binding result in assay [1] is “binds”.

B3: DARPin® protein #64 (designed binder)
chain: DLGWKLLDAAEIGQDDEVRILLAAGADVNAKDKQGITPLHIAAAHGHLEIVEVLLKAGADVNAKDEIGRTPLHLAAFKGHLEIVEVLLKAGADVNAQDIIGETPADLAAVRGHEDIAEVLQKAA
notes: as for B2
Regarding B3, the binding result in assay [2] is “binds”.

B4: DARPin® protein #6 (designed binder)
chain: DLGKKLLEAARAGQDDEVRILMANGADVNALDWLGHTPLHLAAYEGHLEIVEVLLKNGADVNAIDDNNGFTPLHLAAIDGHLEIVEVLLKNGADVNAQDKFGKTAFDISIDNGNEDLAEILQKAA
notes: CD123-specific domain
On to B4, for which the binding result in assay [1] and in assay [2] was “binds” in each case.

B5: DARPin® protein #63 (designed binder)
chain: DLGKKLLQAARAGQLDEVRELLKAGADVNAKDQYGRTPLHLAAIKGHLEIVEVLLKAGADVNAKDSLGYTPLHLAAVEGPLEIVEVLLKAGADVNAKDAYGQTPLHIAAAWGHLEIVEVLLKAVADVNAQDKSGKTPADLAARAGHQDIAEVLQKAA
notes: as for B2
With B5, the binding entry in assay [2] was “binds”.
